In patent US20200000816A1, “COMPOUND HAVING SOMATOSTATIN RECEPTOR AGONISTIC ACTIVITY AND PHARMACEUTICAL USE THEREOF” (ONO PHARMACEUTICAL CO., LTD., priority 2017, published 2020):
Some of these results come from one statement about several compounds together.

System: Chinese hamster lung-derived CHL/IU cells
Assay: Evaluation of phospholipidosis induction ability using cultured cell line (NBD-PE incorporation)
Type: cell-based
Conditions: 24 hours, positive = 25% or more of amiodarone maximum reaction at cell viability 50% or more
Method: Chinese hamster lung-derived CHL/IU cells were suspended in an MEM-E culture solution containing non-essential amino acids, sodium pyruvate and 10% foetal bovine serum and seeded in a 96-well plate. The cells cultured overnight in an incubator (5% carbon dioxide, 95% air, 37° C.) were further cultured for 24 hours after replacing the culture solution with a culture solution containing 6.25, 12.5, 25, 50 or 100 μmol/L of a test substance and NBD-PE (fluorescence label N-(7-nitrobenz-2-oxa-1,3-diazol-4-yl)-1,2-dihexadecanoyl-sn-glycero-3-phosphoethanolamine triethylammonium salt) obtained from Molecular Probes. The phospholipidosis induction ability was evaluated by measuring the concentration of NBD-PE incorporated into the cells. Specifically, the cells were washed twice with PBS and then measured for the fluorescence of NBD-PE (excitation wavelength: 485 nm, fluorescence wavelength: 535 nm) incorporated in the cells on a SpectraMax plate reader available from Molecular Devices, LLC. for evaluation. After measurement of the fluorescence of NBD-PE, the cell viability was evaluated with Premix WST-1 Cell Proliferation Assay System available from TaKaRa Bio Inc. The phospholipidosis induction ability was judged to be positive when, at a dose that provided a cell viability of 50% or more, the reaction (the concentration of NBD-PE incorporated after administration of a test substance) was 25% or more of the maximum reaction of a positive control amiodarone (the concentration of NBD-PE incorporated into the cells after administration of amiodarone was regarded as 100%).

SMILES | concentration at which judged to be positive in phospholipidosis induction ability [µM]
COC(=O)c1cc(F)cc2nc(-c3c(C)ncc(-c4cc(F)ccc4F)c3N3CC[C@@H](N)[C@@H](O)C3)[nH]c12 [Example 2(12), Methyl 2-{4-[(3S,4R)-4-amino-3-hydroxy-1-piperidinyl]-5-(2,5-difluorophenyl)-2-methyl-3-pyridinyl}-5-fluoro-1H-benzimidazole-7-carboxylate] | ≥ 50
Cc1ncc(-c2cc(F)cc(F)c2)c(N2CC[C@@H](N)[C@@H](O)C2)c1-c1nc2cc(F)c(F)c(F)c2[nH]1 [Example 2(13), (3S,4R)-4-amino-1-[5-(3,5-difluorophenyl)-2-methyl-3-(5,6,7-trifluoro-1H-benzimidazol-2-yl)-4-pyridinyl]-3-piperidinol] | ≥ 25
CCN[C@@H]1CCN(c2c(-c3cc(F)cc(F)c3)cnc(C)c2-c2nc3cc(F)c(OC)cc3[nH]2)C[C@@H]1O [Example 3(4), (3S,4R)-1-[5-(3,5-difluorophenyl)-3-(5-fluoro-6-methoxy-1H-benzimidazol-2-yl)-2-methyl-4-pyridinyl]-4-(ethylamino)-3-piperidinol] | ≥ 50
CCN[C@@H]1CCN(c2c(-c3cc(F)cc(F)c3)cnc(C)c2-c2nc3cc(F)c(F)c(F)c3[nH]2)C[C@@H]1O [Example 3(15), (3S,4R)-1-[5-(3,5-difluorophenyl)-2-methyl-3-(5,6,7-trifluoro-1H-benzimidazol-2-yl)-4-pyridinyl]-4-(ethylamino)-3-piperidinol] | ≥ 25
